Laboratory results: PubChem BioAssay AID2685 (National Center for Advancing Translational Sciences (NCATS), 2010)
This is one part of the list. Further columns of the screen follow, without active or inactive calls. Most of these compounds were active or inconclusive in the main read-out, so they are no random draw. Words in brackets tell the shape of the fitted curve; partial curves, single points and poor fits give uncertain potencies.

Assay: qHTS Assay for Lipid Storage Modulators in Drosophila S3 Cells;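 on cell number change: cells counted by Cell Tracker Red CMTPX staining in the red channel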
Settings: BODIPY lipid droplet fluorescence, 18-24 h; for cell number change: measured here: cell count max response, cells fed with added oleic acid
Procedure, shortened: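 Laser-scanning cytometry quantifies lipid droplet accumulation (500–530 nm total intensity; droplet/cell object ratio) in oleic acid-fed (400 uM added) Drosophila S3 cells treated with a concentration series. 20 uM Triacsin C defined 100% inhibition.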

[1] = measured here: cell number channel AC50, cells fed with added oleic acid
[2] = measured here: lipid fluorescence (Fed channel) AC50, cells fed with added oleic acid

Structure (SMILES)	cell number change	AC50 [1]	AC50 [2]
CCOc1ccc(C(=O)N(C)C2CCS(=O)(=O)C2)cc1 (configuration not stated)	-5.4%	6.51 µM [falling, single point]	
COc1cccc(N(C(=O)CCl)C(C(=O)NCCc2ccccc2)c2cccs2)c1 (configuration not stated)	0.243%		25.9 µM [falling, single point]
Cc1ccc(O)c(NC(=O)/C=C/C(=O)O)c1			0.206 µM [falling, full curve, poor fit]
CC1(C)C(c2cccs2)=[N+]([O-])C2(CCCCC/C2=N\NC(N)=O)N1O (configuration not stated)	-44.8%	32.6 µM [falling, single point]	
COc1ccc(CC(=O)Nc2cccc(-c3nnc(-c4ccc(C)cc4)o3)c2)cc1OC	-63%	16.4 µM [falling, single point]	29.1 µM [falling, single point]
O=C(NC1CCOC1)c1cc(COc2cccc(C(F)(F)F)c2)on1 (configuration not stated)	-6.37%		6.51 µM [rising, single point]
Cc1ccc(S(=O)(=O)NNC(=O)c2ccc3ccccc3n2)cc1	-14.4%		1.84 µM [rising, full curve]
Cc1csc(SC(C)C(=O)NC2CCCCC2C)n1 (configuration not stated)	-33.3%	25.9 µM [falling, single point]	
O=C(c1cc(C2CC2)nn1-c1ccccc1)N1CCN(S(=O)(=O)c2c(F)cccc2F)CC1	-27.2%		29.1 µM [falling, single point]
Cc1ccccc1C(=O)NCCCNC(=O)c1cnccn1	2.56%		10.3 µM [rising, partial curve]
COC(=O)CC(c1ccc(C(C)C)cc1)n1cccc1 (configuration not stated)	-15.5%		
Cc1cccc(-c2c3c(=O)n(C)c(=O)n(C)c3cn2C(C)C)c1	9.29%		3.66 µM [falling, partial curve]
CC(Oc1ccc(Cl)cc1Cl)C(=O)OCn1nnc2ccccc2c1=O (configuration not stated)	-40%	2.91 µM [falling, full curve]	20.6 µM [falling, partial curve]
O=C(COC(=O)c1ccc2ncsc2c1)NCc1ccc(Cl)cc1	-32.8%	29.1 µM [falling, single point]	
Cc1ccc(C)n1-c1ncc(Br)cn1			35.5 µM [falling, single point]
O=C(NCC1CCN(Cc2ccccc2F)CC1)C1CCCN(c2ncnc3c2nc2n3CCCCC2)C1 (configuration not stated)	10.4%		20.6 µM [rising, single point]
Cc1nc(-c2ccc(-n3nncc3-c3ccco3)cc2)cs1	2.51%		0.259 µM [rising, partial curve, poor fit]
COc1ccc(S(=O)(=O)NCC2CCCN(C(=O)CSC)C2)cc1 (configuration not stated)	2.97%		
O=C(CSc1ncc(-c2ccc(F)cc2)[nH]1)Nc1cccc(O)c1	-20.4%		3.26 µM [falling, single point]
O=C(c1ccco1)N1CCC(c2nc3c(nnn3Cc3ccc(F)cc3)c(=O)[nH]2)CC1	12.1%		
Cn1c(=O)c(=O)n(C)c2cc(S(=O)(=O)N3CCN(c4cccc(C(F)(F)F)c4)CC3)ccc21	3.68%		

Part of the list above in order of count of non-hydrogen atoms, smallest number first.
Structure (SMILES)	cell number change	AC50 [1]	AC50 [2]
Cc1ccc(C)n1-c1ncc(Br)cn1			35.5 µM [falling, single point]
Cc1ccc(O)c(NC(=O)/C=C/C(=O)O)c1			0.206 µM [falling, full curve, poor fit]
Cc1csc(SC(C)C(=O)NC2CCCCC2C)n1 (configuration not stated)	-33.3%	25.9 µM [falling, single point]	
COC(=O)CC(c1ccc(C(C)C)cc1)n1cccc1 (configuration not stated)	-15.5%		
Cc1nc(-c2ccc(-n3nncc3-c3ccco3)cc2)cs1	2.51%		0.259 µM [rising, partial curve, poor fit]
Cc1cccc(-c2c3c(=O)n(C)c(=O)n(C)c3cn2C(C)C)c1	9.29%		3.66 µM [falling, partial curve]
O=C(COC(=O)c1ccc2ncsc2c1)NCc1ccc(Cl)cc1	-32.8%	29.1 µM [falling, single point]	
O=C(NC1CCOC1)c1cc(COc2cccc(C(F)(F)F)c2)on1 (configuration not stated)	-6.37%		6.51 µM [rising, single point]
CC(Oc1ccc(Cl)cc1Cl)C(=O)OCn1nnc2ccccc2c1=O (configuration not stated)	-40%	2.91 µM [falling, full curve]	20.6 µM [falling, partial curve]
COc1cccc(N(C(=O)CCl)C(C(=O)NCCc2ccccc2)c2cccs2)c1 (configuration not stated)	0.243%		25.9 µM [falling, single point]
O=C(c1cc(C2CC2)nn1-c1ccccc1)N1CCN(S(=O)(=O)c2c(F)cccc2F)CC1	-27.2%		29.1 µM [falling, single point]

Later entries.

Structure (SMILES)	cell number change	AC50 [1]	AC50 [2]
CC(C)C(=O)C1=Cc2cccc([N+](=O)[O-])c2OC1N1CCOCC1 (configuration not stated)			0.517 µM [falling, single point]
O=C(NCc1ccc2c(c1)OCO2)c1ccc(CN2CCc3ccccc3C2)cc1	-36.1%	0.00461 µM [falling, full curve, poor fit]	
COc1ccc(S(=O)(=O)NN(C)c2ncc(C(F)(F)F)cc2Cl)cc1	-14.4%		
COc1ccc(S(=O)(=O)N2CCOCC2)cc1NC(=O)COc1ccccc1OC	10.7%		16.4 µM [falling, single point]
CNc1c(NS(=O)(=O)c2ccc(C3CCCCC3)cc2)c(=O)oc2ccccc12			29.1 µM [rising, single point]
COc1cccc(F)c1C(C[N+](=O)[O-])c1c(N)n(C)c(=O)n(C)c1=O (configuration not stated)	-37.3%	23.1 µM [falling, single point]	25.9 µM [falling, partial curve]
CCN1CCCc2cc(CN(CCN3CCOCC3)C(=S)Nc3cccc(OC)c3)ccc21	12.3%	6.51 µM [rising, single point]	
Cc1ccc(Oc2cc(C)nc(-c3ccccc3O)n2)cc1	-30.5%	7.31 µM [falling, partial curve]	11.6 µM [falling, partial curve]
CC(=O)N1c2c(cc(Br)cc2S(=O)(=O)N2CCN(c3ccccn3)CC2)CC1C (configuration not stated)	64.3%	5.17 µM [rising, full curve]	6.51 µM [rising, single point]
CCCCCCn1c(CN2CCCC(C)C2)nc2c1c(=O)n(C)c(=O)n2C (configuration not stated)	16.5%	6.51 µM [rising, single point]	23.1 µM [rising, partial curve]
Cc1cnc(NC(=O)C2CCCO2)s1 (configuration not stated)	-19.5%	7.31 µM [falling, partial curve, poor fit]	1.64 µM [falling, partial curve, poor fit]
Cc1c(CN2CCC(n3nccc3NC(=O)C3CC3)CC2)[nH]c2ccccc12	20.9%		11.6 µM [rising, partial curve]
COc1ccccc1C(CNC(=O)CNC(=O)c1ccccc1Cl)N1CCCC1 (configuration not stated)	-17.3%	0.651 µM [falling, full curve, poor fit]	3.66 µM [falling, single point]
CC1CCCCC1NC(=O)CSc1nnnn1-c1ccccc1 (configuration not stated)	-4.3%		
CCn1c(SCC(=O)NC(C)(C)C)nc(O)cc1=O		6.51 µM [rising, single point]	
CN1C(=O)NC(NC(=O)c2cccs2)(C(F)(F)F)C1=O (configuration not stated)	-7.5%		
Cc1nc2cc(C(=O)N3CCc4ccccc43)ccc2n1-c1ccc(F)c(F)c1	-2.5%	0.116 µM [rising, full curve, poor fit]	0.146 µM [rising, full curve, poor fit]
CCOC(=O)c1cc(C#N)c(SCc2cccc3ccccc23)nc1C	91.2%	10.3 µM [rising, partial curve]	16.4 µM [rising, partial curve]
NS(=O)(=O)c1ccc(CCNC(=O)c2ccccc2OCc2ccc(F)cc2)cc1	22.4%		2.82 µM [falling, partial curve]
CSc1ncccc1C(=O)N(C)CC(=O)Nc1ccc(Cl)cc1	8.7%		
CC(=O)Oc1cccc(C(=O)Nc2ccc3c(c2)C(=O)N(CC2CCCO2)C3=O)c1 (configuration not stated)	-40.2%	7.31 µM [falling, partial curve, poor fit]	

Structure (SMILES)	cell number change	AC50 [1]	AC50 [2]
CCOC(=O)c1ccc(NC(=O)C2C3CCCCC32)cc1 (configuration not stated)	-18.3%	3.26 µM [falling, partial curve, poor fit]	
CC1(C(=O)OCC(=O)NCCNC(=O)COC(=O)C2(C)CC2(Cl)Cl)CC1(Cl)Cl (configuration not stated)	14%		
CNCc1ccccc1Sc1ccc(OC)c(OC)c1	19.3%		8.2 µM [rising, partial curve, poor fit]
Cc1cc(=O)nc2c3ccccc3n(CC(=O)Nc3ccccc3Br)n12	-12.6%		
O=C(NC(=S)Nc1ccc(CN2CCOCC2)cc1)c1cccc([N+](=O)[O-])c1	40.5%	16.4 µM [rising, partial curve]	1.03 µM [rising, full curve, poor fit]
CCCCCCSc1nc2c(c(=O)[nH]c(=O)n2C)n1C	12.8%		4.11 µM [rising, single point]
COc1ccc(CNC(=O)CSCc2c(F)cccc2Cl)cc1	15%		
COc1cc(/C(C#N)=C/c2cccc3ccccc23)c([N+](=O)[O-])cc1OC	19%		4.61 µM [rising, partial curve]
O=C(Nc1ccccc1Cc1ccccc1)c1ccccc1F	-28.9%		3.55 µM [rising, single point]
O=C(NCc1cccnc1)c1ccc(NC(=O)c2ccc([N+](=O)[O-])cc2)cc1	5.95%		
O=C1c2ccccc2C(=O)N1C/C=C/c1ccccc1	-39.7%	0.103 µM [falling, full curve, poor fit]	
O=C(CCc1ccc(S(=O)(=O)NCc2ccccc2)cc1)N1CCN(Cc2ccc3c(c2)OCO3)CC1	-30.8%		0.0517 µM [falling, full curve, poor fit]
CCn1c(C)cs/c1=N\C(=S)Nc1ccccc1C	9.44%		29.1 µM [rising, single point]
COc1cc(C(=O)NCc2nnc(SCC(=O)NCc3ccco3)o2)cc(OC)c1OC	25.7%		10.3 µM [rising, partial curve]
Cc1cccc(C)c1OCC(O)CN (configuration not stated)	-7.48%	0.58 µM [falling, partial curve]	0.116 µM [falling, full curve]
Cc1ccc(S(=O)(=O)NCC(=O)N2CCC(C)CC2)cc1	11.7%		2.06 µM [rising, single point]
Cc1ccc(Sc2c(O)c3ccccc3n(C)c2=O)cc1	26.3%		0.13 µM [rising, full curve, poor fit]
CCc1ccc2oc(=O)cc(CN3CCOCC3)c2c1	5.5%		5.8 µM [rising, single point]
CCOc1ncccc1C(=O)Nc1cccc(-c2nc3cccnc3s2)c1	-25.5%		18.4 µM [falling, single point]
